Source: the supplement of paper PMC12823440, “Inhibitors supercharge kinase turnover through native proteolytic circuits” (Nature, 2025)
Structures can show the parent of a compound that is named as a salt. This is one part of the list. The calls rarely recur for the same compound in another form.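 In K562 cells expressing nanoluciferase-fused kinases, luminescence was recorded at 4 h intervals between 2 and 18 h, normalized as percent of control with DMSO at 100% and a positive control at 0%. A significant (2 sigma) signal drop marks a time point as decreased. The authors' rule for a hit is not shown and takes in more than the number of time points.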

The chains behind the UniProt entries cited, without tags or fusion partners. Where a name states a change or a piece, a line headed by the entry shows the natural chain unless it says otherwise.
UniProt P07949, whole entry, looked up: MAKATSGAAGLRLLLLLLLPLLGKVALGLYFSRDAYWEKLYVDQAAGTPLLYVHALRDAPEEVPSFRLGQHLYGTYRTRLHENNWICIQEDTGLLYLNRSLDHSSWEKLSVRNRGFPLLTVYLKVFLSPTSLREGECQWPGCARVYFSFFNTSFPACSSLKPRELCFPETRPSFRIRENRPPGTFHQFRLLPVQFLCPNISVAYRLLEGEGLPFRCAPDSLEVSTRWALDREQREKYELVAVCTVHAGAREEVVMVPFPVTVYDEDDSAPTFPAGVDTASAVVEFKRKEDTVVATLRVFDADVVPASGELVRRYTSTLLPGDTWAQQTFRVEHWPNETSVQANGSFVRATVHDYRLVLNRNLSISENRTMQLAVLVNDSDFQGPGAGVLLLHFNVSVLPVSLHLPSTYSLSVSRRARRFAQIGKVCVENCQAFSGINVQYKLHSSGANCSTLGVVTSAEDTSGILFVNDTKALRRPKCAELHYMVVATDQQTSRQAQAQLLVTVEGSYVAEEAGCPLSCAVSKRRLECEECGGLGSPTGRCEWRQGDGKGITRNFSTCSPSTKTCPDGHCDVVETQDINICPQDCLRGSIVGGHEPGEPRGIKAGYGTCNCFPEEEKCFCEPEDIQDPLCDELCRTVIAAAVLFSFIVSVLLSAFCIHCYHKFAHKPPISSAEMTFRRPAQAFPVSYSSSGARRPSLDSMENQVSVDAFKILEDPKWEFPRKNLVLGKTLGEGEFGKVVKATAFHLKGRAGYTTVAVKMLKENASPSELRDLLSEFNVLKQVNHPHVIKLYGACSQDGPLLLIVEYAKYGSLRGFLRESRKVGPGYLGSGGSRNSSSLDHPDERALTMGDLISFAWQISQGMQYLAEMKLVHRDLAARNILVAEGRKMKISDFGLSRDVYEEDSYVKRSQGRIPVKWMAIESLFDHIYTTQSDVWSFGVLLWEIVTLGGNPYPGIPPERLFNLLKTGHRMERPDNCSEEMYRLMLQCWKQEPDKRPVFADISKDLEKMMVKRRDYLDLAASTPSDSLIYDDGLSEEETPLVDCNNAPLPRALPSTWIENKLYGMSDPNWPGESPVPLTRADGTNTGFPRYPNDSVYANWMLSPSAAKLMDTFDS
UniProt P07949, whole entry M918T, looked up: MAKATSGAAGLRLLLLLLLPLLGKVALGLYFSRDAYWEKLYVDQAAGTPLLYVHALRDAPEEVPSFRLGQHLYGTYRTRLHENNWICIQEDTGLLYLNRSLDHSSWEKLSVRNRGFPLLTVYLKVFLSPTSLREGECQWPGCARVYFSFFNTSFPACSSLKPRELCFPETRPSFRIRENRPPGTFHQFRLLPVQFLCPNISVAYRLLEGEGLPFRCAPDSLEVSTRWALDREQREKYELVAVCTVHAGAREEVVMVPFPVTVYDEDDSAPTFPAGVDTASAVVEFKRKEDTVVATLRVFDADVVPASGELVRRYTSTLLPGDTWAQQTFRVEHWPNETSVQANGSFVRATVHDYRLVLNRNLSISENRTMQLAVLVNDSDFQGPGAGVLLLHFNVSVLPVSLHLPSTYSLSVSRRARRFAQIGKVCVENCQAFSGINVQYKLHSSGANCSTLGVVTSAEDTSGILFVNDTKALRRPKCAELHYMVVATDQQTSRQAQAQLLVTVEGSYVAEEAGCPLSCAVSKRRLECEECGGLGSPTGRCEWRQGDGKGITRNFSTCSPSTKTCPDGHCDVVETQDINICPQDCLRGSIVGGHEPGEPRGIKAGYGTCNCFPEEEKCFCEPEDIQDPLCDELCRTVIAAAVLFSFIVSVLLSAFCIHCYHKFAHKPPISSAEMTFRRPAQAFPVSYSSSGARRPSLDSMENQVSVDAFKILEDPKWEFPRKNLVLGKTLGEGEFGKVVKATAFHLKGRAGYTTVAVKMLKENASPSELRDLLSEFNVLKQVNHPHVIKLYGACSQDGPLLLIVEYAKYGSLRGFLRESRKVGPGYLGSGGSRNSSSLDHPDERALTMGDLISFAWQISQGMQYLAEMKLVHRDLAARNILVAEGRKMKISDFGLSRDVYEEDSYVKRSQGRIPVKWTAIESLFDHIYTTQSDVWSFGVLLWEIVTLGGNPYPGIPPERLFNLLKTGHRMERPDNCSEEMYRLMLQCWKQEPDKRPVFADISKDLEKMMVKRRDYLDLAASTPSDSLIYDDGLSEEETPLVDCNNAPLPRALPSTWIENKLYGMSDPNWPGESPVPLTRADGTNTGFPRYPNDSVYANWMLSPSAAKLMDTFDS
UniProt Q9BRS2: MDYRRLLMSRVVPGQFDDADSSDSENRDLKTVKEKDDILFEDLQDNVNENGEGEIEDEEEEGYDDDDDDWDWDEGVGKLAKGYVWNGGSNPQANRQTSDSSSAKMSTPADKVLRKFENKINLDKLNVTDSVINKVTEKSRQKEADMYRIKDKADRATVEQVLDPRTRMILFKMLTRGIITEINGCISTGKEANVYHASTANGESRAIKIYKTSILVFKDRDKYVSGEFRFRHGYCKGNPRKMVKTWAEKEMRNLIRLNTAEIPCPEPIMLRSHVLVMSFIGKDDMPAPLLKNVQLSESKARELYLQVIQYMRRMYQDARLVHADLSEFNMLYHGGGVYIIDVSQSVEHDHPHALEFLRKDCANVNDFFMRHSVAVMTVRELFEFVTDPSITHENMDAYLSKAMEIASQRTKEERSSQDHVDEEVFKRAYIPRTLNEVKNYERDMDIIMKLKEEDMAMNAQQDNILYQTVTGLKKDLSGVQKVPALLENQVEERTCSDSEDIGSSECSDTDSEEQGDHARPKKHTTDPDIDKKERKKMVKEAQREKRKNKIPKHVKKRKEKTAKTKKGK
UniProt Q13546: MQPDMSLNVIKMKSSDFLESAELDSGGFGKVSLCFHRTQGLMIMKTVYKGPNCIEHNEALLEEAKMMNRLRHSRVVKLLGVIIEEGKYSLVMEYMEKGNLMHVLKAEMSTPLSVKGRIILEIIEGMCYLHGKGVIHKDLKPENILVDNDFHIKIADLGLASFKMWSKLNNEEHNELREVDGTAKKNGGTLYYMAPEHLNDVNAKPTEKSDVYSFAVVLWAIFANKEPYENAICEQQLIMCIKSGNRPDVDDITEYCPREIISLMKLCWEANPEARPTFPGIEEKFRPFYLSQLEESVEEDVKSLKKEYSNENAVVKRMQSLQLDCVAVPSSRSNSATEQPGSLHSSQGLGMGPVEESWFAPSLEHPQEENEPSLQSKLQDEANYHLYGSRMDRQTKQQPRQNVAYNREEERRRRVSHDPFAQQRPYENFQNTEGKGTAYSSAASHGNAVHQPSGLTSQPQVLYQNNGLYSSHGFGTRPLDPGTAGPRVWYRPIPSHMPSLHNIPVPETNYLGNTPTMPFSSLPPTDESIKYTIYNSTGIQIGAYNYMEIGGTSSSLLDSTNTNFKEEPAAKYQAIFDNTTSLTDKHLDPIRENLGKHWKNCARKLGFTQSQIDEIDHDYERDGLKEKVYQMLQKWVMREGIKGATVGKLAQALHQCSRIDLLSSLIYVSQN
UniProt Q15418, whole entry: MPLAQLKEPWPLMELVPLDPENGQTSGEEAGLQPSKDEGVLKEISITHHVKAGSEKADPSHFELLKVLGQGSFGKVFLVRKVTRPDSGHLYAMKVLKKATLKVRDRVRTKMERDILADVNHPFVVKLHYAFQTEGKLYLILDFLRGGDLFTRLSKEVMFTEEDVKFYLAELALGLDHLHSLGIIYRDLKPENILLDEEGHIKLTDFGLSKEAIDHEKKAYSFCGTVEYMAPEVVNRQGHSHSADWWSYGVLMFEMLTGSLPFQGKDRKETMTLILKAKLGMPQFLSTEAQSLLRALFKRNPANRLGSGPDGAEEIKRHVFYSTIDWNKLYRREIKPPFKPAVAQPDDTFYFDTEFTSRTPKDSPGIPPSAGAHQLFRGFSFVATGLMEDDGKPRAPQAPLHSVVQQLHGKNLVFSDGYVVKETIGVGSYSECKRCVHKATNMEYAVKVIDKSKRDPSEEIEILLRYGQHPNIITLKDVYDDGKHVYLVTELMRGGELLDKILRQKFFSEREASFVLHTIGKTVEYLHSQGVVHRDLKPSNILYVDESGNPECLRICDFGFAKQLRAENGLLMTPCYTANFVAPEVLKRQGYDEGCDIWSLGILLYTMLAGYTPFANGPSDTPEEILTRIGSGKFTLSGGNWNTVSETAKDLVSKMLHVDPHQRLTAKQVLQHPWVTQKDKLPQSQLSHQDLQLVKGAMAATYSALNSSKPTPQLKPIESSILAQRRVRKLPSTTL
UniProt Q15208: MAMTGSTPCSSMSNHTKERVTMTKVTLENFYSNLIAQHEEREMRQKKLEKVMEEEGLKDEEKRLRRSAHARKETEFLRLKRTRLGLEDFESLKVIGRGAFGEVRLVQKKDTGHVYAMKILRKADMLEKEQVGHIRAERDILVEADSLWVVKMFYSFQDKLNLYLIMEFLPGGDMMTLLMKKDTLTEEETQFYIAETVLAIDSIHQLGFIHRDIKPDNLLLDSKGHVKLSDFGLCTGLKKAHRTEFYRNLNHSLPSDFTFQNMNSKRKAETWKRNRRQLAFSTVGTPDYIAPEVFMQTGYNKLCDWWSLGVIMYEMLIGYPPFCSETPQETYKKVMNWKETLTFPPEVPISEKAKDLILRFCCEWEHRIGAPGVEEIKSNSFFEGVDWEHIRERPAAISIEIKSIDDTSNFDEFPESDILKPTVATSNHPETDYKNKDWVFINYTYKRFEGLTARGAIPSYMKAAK
UniProt Q6PHR2: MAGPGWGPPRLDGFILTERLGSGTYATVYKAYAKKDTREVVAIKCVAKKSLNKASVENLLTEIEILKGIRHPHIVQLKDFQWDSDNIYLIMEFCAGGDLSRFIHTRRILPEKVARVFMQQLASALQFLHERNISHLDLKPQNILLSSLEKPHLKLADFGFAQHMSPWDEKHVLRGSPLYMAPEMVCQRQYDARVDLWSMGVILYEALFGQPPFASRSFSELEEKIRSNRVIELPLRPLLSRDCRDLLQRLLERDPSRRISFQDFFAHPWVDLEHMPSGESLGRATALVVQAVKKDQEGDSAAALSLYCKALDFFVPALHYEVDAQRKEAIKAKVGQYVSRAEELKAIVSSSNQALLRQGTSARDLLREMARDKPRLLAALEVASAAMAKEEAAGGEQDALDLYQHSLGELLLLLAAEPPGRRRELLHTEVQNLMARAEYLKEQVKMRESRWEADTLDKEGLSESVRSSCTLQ
UniProt P07947, whole entry, looked up: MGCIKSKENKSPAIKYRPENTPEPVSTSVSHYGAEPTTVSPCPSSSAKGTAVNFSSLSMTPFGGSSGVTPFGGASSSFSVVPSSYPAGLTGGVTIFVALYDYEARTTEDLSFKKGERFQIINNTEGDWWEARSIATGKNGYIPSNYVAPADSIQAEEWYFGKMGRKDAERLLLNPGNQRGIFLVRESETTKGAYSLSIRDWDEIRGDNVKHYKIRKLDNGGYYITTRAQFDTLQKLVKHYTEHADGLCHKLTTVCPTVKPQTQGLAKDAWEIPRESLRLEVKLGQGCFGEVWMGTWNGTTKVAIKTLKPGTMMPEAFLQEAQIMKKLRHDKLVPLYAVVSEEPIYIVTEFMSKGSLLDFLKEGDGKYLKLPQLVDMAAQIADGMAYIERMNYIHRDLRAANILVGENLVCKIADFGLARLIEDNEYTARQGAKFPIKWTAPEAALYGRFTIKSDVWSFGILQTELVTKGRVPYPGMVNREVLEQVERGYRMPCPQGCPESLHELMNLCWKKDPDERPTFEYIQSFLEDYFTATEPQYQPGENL
UniProt P43403: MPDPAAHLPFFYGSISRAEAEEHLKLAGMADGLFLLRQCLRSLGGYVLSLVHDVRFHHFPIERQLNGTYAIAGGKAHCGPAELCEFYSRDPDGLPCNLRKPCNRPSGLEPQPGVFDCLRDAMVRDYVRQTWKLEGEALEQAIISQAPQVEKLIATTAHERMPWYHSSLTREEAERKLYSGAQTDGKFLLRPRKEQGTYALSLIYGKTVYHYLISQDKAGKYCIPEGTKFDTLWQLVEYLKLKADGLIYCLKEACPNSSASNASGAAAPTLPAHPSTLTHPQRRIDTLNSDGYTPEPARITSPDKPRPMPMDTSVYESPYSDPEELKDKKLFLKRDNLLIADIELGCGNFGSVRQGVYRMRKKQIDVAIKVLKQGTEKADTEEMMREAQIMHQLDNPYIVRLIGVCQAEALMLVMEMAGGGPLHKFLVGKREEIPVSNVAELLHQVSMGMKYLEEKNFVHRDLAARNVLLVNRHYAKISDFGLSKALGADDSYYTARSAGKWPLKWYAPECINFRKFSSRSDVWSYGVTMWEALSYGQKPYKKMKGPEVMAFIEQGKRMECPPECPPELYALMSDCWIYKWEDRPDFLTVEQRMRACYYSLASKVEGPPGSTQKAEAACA

Legend:
Settings in all cases: K562; 2-18 h
RET = RET (UniProt P07949); experiment: kinase-Nluc reporter destabilization hit call (1 = scored as downregulated) (binary); higher = compound decreases kinase abundance
[1] = target: RET_M918T (clone: RET_mut) (UniProt P07949); experiment: as above
RIOK1 = RIOK1 (UniProt Q9BRS2); experiment: as above
RIPK1 = RIPK1 (UniProt Q13546); experiment: as above
RIPK2 = RIPK2 (UniProt O43353); experiment: as above
ROR2 = ROR2 (UniProt Q01974); experiment: as above
RPS6KA1 = RPS6KA1 (UniProt Q15418); experiment: as above
SPHK1 = SPHK1 (UniProt Q9NYA1); experiment: as above
SRC = SRC (UniProt P12931); experiment: as above
STK24 = STK24 (UniProt Q9Y6E0); experiment: as above
STK38 = STK38 (UniProt Q15208); experiment: as above
SYK = SYK (UniProt P43405); experiment: as above
TEC = TEC (UniProt P42680); experiment: as above
TYK2 = TYK2 (UniProt P29597); experiment: as above
ULK3 = ULK3 (UniProt Q6PHR2); experiment: as above
YES1 = YES1 (UniProt P07947); experiment: as above
ZAK = ZAK (UniProt Q9NYL2); experiment: as above
ZAP70 = ZAP70 (UniProt P43403); experiment: as above
ABL1 = ABL1 (UniProt P00519); experiment: number of time points (of 5) at which kinase-Nluc abundance scored as decreased, DMSO-normalised (count); higher = more persistent destabilization
AKT1 = AKT1 (UniProt P31749); experiment: as above

Row | Structure (SMILES) | kinase-Nluc reporter destabilization hit call (RET) | kinase-Nluc reporter destabilization hit call [1] | kinase-Nluc reporter destabilization hit call (RIOK1) | kinase-Nluc reporter destabilization hit call (RIPK1) | kinase-Nluc reporter destabilization hit call (RIPK2) | kinase-Nluc reporter destabilization hit call (ROR2) | kinase-Nluc reporter destabilization hit call (RPS6KA1) | kinase-Nluc reporter destabilization hit call (SPHK1) | kinase-Nluc reporter destabilization hit call (SRC) | kinase-Nluc reporter destabilization hit call (STK24) | kinase-Nluc reporter destabilization hit call (STK38) | kinase-Nluc reporter destabilization hit call (SYK) | kinase-Nluc reporter destabilization hit call (TEC) | kinase-Nluc reporter destabilization hit call (TYK2) | kinase-Nluc reporter destabilization hit call (ULK3) | kinase-Nluc reporter destabilization hit call (YES1) | kinase-Nluc reporter destabilization hit call (ZAK) | kinase-Nluc reporter destabilization hit call (ZAP70) | number of time points (ABL1) | number of time points (AKT1)
1 | CN(C)C(=O)c1ccc(Cn2c(C(=O)O)cc3c(Br)cc(Sc4ccc(Cl)c(Cl)c4)cc32)cc1 [Rheb inhibitor NR1] (10 µM) | inactive: 0 | inactive: 0 | inactive: 0 | inactive: 0 | inactive: 0 | inactive: 0 | inactive: 0 | inactive: 0 | inactive: 0 | inactive: 0 | inactive: 0 | inactive: 0 | inactive: 0 | inactive: 0 | inactive: 0 | inactive: 0 | inactive: 0 | inactive: 0 | 0 | 0
2 | C[C@H]1CC[C@]2(NC1)O[C@H]1C[C@H]3[C@@H]4CC[C@H]5C[C@@H](O)CC[C@]5(C)[C@H]4CC[C@]3(C)[C@H]1[C@@H]2C [Tomatidine (hydrochloride)] (10 µM) | inactive: 0 | inactive: 0 | inactive: 0 | inactive: 0 | inactive: 0 | inactive: 0 | inactive: 0 | inactive: 0 | inactive: 0 | inactive: 0 | inactive: 0 | inactive: 0 | inactive: 0 | inactive: 0 | inactive: 0 | inactive: 0 | inactive: 0 | inactive: 0 | 0 | 0
3 | C=CC(=O)N[C@H]1C=C(C)c2c(-c3cnc4ccccc4c3)c3c(N)ncnc3n2C1 (10 µM) | inactive: 0 | inactive: 0 | inactive: 0 | inactive: 0 | inactive: 0 | inactive: 0 | inactive: 0 | inactive: 0 | inactive: 0 | inactive: 0 | inactive: 0 | inactive: 0 | inactive: 0 | inactive: 0 | inactive: 0 | inactive: 0 | inactive: 0 | inactive: 0 | 0 | 0
4 | C[C@H]1CC[C@]2(NC1)O[C@H]1C[C@H]3[C@@H]4CC[C@H]5C[C@@H](O[C@@H]6O[C@H](CO)[C@H](O[C@@H]7O[C@H](CO)[C@@H](O)[C@H](O[C@@H]8OC[C@@H](O)[C@H](O)[C@H]8O)[C@H]7O[C@@H]7O[C@H](CO)[C@@H](O)[C@H](O)[C@H]7O)[C@H](O)[C@H]6O)CC[C@]5(C)[C@H]4CC[C@]3(C)[C@H]1[C@@H]2C [Tomatine] (2.5 µM) | active: 1 | inactive: 0 | inactive: 0 | inactive: 0 | inactive: 0 | inactive: 0 | inactive: 0 | inactive: 0 | inactive: 0 | inactive: 0 | inactive: 0 | inactive: 0 | inactive: 0 | inactive: 0 | inactive: 0 | inactive: 0 | inactive: 0 | inactive: 0 | 3 | 0
5 | Cc1ccccc1-n1c(Cn2cnc3c(N)ncnc32)nc2cccc(C)c2c1=O (10 µM) | inactive: 0 | inactive: 0 | inactive: 0 | inactive: 0 | inactive: 0 | inactive: 0 | inactive: 0 | inactive: 0 | inactive: 0 | inactive: 0 | inactive: 0 | inactive: 0 | inactive: 0 | inactive: 0 | inactive: 0 | inactive: 0 | inactive: 0 | inactive: 0 | 0 | 0
6 | C/C=C(/C)C(=O)O[C@H]1[C@@H]2[C@H](C)C(=O)O[C@@H]2C[C@@H](C)[C@@H]2C=CC(=O)[C@]21C [Brevilin A] (2.5 µM) | inactive: 0 | inactive: 0 | inactive: 0 | inactive: 0 | inactive: 0 | inactive: 0 | inactive: 0 | inactive: 0 | inactive: 0 | inactive: 0 | inactive: 0 | inactive: 0 | inactive: 0 | inactive: 0 | inactive: 0 | inactive: 0 | inactive: 0 | inactive: 0 | 0 | 0
7 | O=c1cc(O)c2ccccc2o1 [4-Hydroxycoumarin] (10 µM) | inactive: 0 | inactive: 0 | inactive: 0 | inactive: 0 | inactive: 0 | inactive: 0 | inactive: 0 | inactive: 0 | inactive: 0 | inactive: 0 | inactive: 0 | inactive: 0 | inactive: 0 | inactive: 0 | inactive: 0 | inactive: 0 | inactive: 0 | inactive: 0 | 0 | 0
8 | COc1ccc2c(c1)[nH]c1c(C)nccc12 [Harmine] (10 µM) | inactive: 0 | inactive: 0 | inactive: 0 | inactive: 0 | inactive: 0 | inactive: 0 | inactive: 0 | inactive: 0 | inactive: 0 | inactive: 0 | inactive: 0 | inactive: 0 | inactive: 0 | inactive: 0 | inactive: 0 | inactive: 0 | inactive: 0 | inactive: 0 | 0 | 0
9 | CCOC(=O)c1c(/C(C#N)=C\N)c2ccc(Cl)c(Cl)c2n1C (10 µM) | inactive: 0 | inactive: 0 | inactive: 0 | inactive: 0 | inactive: 0 | inactive: 0 | inactive: 0 | inactive: 0 | inactive: 0 | inactive: 0 | inactive: 0 | inactive: 0 | inactive: 0 | inactive: 0 | inactive: 0 | inactive: 0 | inactive: 0 | inactive: 0 | 0 | 0
10 | Cc1ccccc1-n1c(Cn2ncc3c(N)ncnc32)nc2cccc(C)c2c1=O (10 µM) | inactive: 0 | inactive: 0 | inactive: 0 | inactive: 0 | inactive: 0 | inactive: 0 | inactive: 0 | inactive: 0 | inactive: 0 | inactive: 0 | inactive: 0 | inactive: 0 | inactive: 0 | inactive: 0 | inactive: 0 | inactive: 0 | inactive: 0 | inactive: 0 | 0 | 0
11 | C[S+]([O-])/C=C/CCN=C=S (stereo not given) [Sulforaphene] (10 µM) | inactive: 0 | inactive: 0 | inactive: 0 | inactive: 0 | inactive: 0 | inactive: 0 | inactive: 0 | inactive: 0 | inactive: 0 | inactive: 0 | inactive: 0 | inactive: 0 | inactive: 0 | inactive: 0 | inactive: 0 | inactive: 0 | inactive: 0 | inactive: 0 | 0 | 0
12 | COc1ccc(N(C(=O)Oc2c(C)cccc2C)c2ccnc(Nc3ccc(N4CCN(C)CC4)cc3)n2)c(OC)c1 (2.5 µM) | inactive: 0 | inactive: 0 | inactive: 0 | inactive: 0 | inactive: 0 | inactive: 0 | inactive: 0 | inactive: 0 | inactive: 0 | inactive: 0 | inactive: 0 | inactive: 0 | inactive: 0 | inactive: 0 | inactive: 0 | inactive: 0 | inactive: 0 | inactive: 0 | 0 | 0
13 | O=c1[nH]c2ccccc2n1C1CCN(CCCC(c2ccc(F)cc2)c2ccc(F)cc2)CC1 [Pimozide] (2.5 µM) | inactive: 0 | inactive: 0 | inactive: 0 | inactive: 0 | inactive: 0 | inactive: 0 | inactive: 0 | inactive: 0 | inactive: 0 | inactive: 0 | inactive: 0 | inactive: 0 | inactive: 0 | inactive: 0 | inactive: 0 | inactive: 0 | inactive: 0 | inactive: 0 | 0 | 0
14 | Cc1[nH]ncc1-c1cc2nc([C@H]3CC4CCN3CC4)[nH]c(=O)c2s1 [(R)-Simurosertib] (10 µM) | inactive: 0 | inactive: 0 | inactive: 0 | inactive: 0 | inactive: 0 | inactive: 0 | inactive: 0 | inactive: 0 | inactive: 0 | inactive: 0 | inactive: 0 | inactive: 0 | inactive: 0 | inactive: 0 | inactive: 0 | inactive: 0 | inactive: 0 | inactive: 0 | 0 | 0
15 | C[C@H](CCC(=O)O)C[C@H](C)C[C@H](C)C(=O)/C=C(\O)[C@H](C)C[C@H](C)C/C=C/[C@@H](C)[C@@H](O)[C@@H](C)[C@@H](O)C[C@@H]1CC[C@@](C)([C@H]2CC[C@@](C)([C@@H](C)O)O2)O1 [Ionomycin (calcium)] (2.5 µM) | inactive: 0 | inactive: 0 | active: 1 | inactive: 0 | inactive: 0 | inactive: 0 | inactive: 0 | inactive: 0 | inactive: 0 | inactive: 0 | active: 1 | inactive: 0 | inactive: 0 | inactive: 0 | inactive: 0 | inactive: 0 | inactive: 0 | inactive: 0 | 0 | 0
16 | CCN1CCN(C(=O)Cc2ccc(Nc3ncc(F)c(Nc4ccc(C(=O)Nc5ccccc5Cl)cc4)n3)cc2)CC1 (2.5 µM) | inactive: 0 | inactive: 0 | inactive: 0 | inactive: 0 | inactive: 0 | inactive: 0 | inactive: 0 | inactive: 0 | inactive: 0 | inactive: 0 | inactive: 0 | inactive: 0 | inactive: 0 | inactive: 0 | inactive: 0 | inactive: 0 | inactive: 0 | inactive: 0 | 0 | 0
17 | O=c1ccc2cc(O[C@@H]3O[C@H](CO)[C@@H](O)[C@H](O)[C@H]3O)c(O)cc2o1 [Esculin] (10 µM) | inactive: 0 | inactive: 0 | inactive: 0 | inactive: 0 | inactive: 0 | inactive: 0 | inactive: 0 | inactive: 0 | inactive: 0 | inactive: 0 | inactive: 0 | inactive: 0 | inactive: 0 | inactive: 0 | inactive: 0 | inactive: 0 | inactive: 0 | inactive: 0 | 0 | 0
18 | O=C1C=CC[C@@H]2[C@H]3CCCN4CCC[C@@H](CN12)[C@@H]34 [Sophocarpine (monohydrate)] (2.5 µM) | inactive: 0 | inactive: 0 | inactive: 0 | inactive: 0 | inactive: 0 | inactive: 0 | inactive: 0 | inactive: 0 | inactive: 0 | inactive: 0 | inactive: 0 | inactive: 0 | inactive: 0 | active: 1 | inactive: 0 | inactive: 0 | inactive: 0 | inactive: 0 | 0 | 0

Four entries from above, in CSV form.
Row,Structure (SMILES),kinase-Nluc reporter destabilization hit call (RET),kinase-Nluc reporter destabilization hit call [1],kinase-Nluc reporter destabilization hit call (RIOK1),kinase-Nluc reporter destabilization hit call (RIPK1),kinase-Nluc reporter destabilization hit call (RIPK2),kinase-Nluc reporter destabilization hit call (ROR2),kinase-Nluc reporter destabilization hit call (RPS6KA1),kinase-Nluc reporter destabilization hit call (SPHK1),kinase-Nluc reporter destabilization hit call (SRC),kinase-Nluc reporter destabilization hit call (STK24),kinase-Nluc reporter destabilization hit call (STK38),kinase-Nluc reporter destabilization hit call (SYK),kinase-Nluc reporter destabilization hit call (TEC),kinase-Nluc reporter destabilization hit call (TYK2),kinase-Nluc reporter destabilization hit call (ULK3),kinase-Nluc reporter destabilization hit call (YES1),kinase-Nluc reporter destabilization hit call (ZAK),kinase-Nluc reporter destabilization hit call (ZAP70),number of time points (ABL1),number of time points (AKT1)
11,C[S+]([O-])/C=C/CCN=C=S (stereo not given) [Sulforaphene] (10 µM),inactive: 0,inactive: 0,inactive: 0,inactive: 0,inactive: 0,inactive: 0,inactive: 0,inactive: 0,inactive: 0,inactive: 0,inactive: 0,inactive: 0,inactive: 0,inactive: 0,inactive: 0,inactive: 0,inactive: 0,inactive: 0,0,0
12,COc1ccc(N(C(=O)Oc2c(C)cccc2C)c2ccnc(Nc3ccc(N4CCN(C)CC4)cc3)n2)c(OC)c1 (2.5 µM),inactive: 0,inactive: 0,inactive: 0,inactive: 0,inactive: 0,inactive: 0,inactive: 0,inactive: 0,inactive: 0,inactive: 0,inactive: 0,inactive: 0,inactive: 0,inactive: 0,inactive: 0,inactive: 0,inactive: 0,inactive: 0,0,0
13,O=c1[nH]c2ccccc2n1C1CCN(CCCC(c2ccc(F)cc2)c2ccc(F)cc2)CC1 [Pimozide] (2.5 µM),inactive: 0,inactive: 0,inactive: 0,inactive: 0,inactive: 0,inactive: 0,inactive: 0,inactive: 0,inactive: 0,inactive: 0,inactive: 0,inactive: 0,inactive: 0,inactive: 0,inactive: 0,inactive: 0,inactive: 0,inactive: 0,0,0
14,Cc1[nH]ncc1-c1cc2nc([C@H]3CC4CCN3CC4)[nH]c(=O)c2s1 [(R)-Simurosertib] (10 µM),inactive: 0,inactive: 0,inactive: 0,inactive: 0,inactive: 0,inactive: 0,inactive: 0,inactive: 0,inactive: 0,inactive: 0,inactive: 0,inactive: 0,inactive: 0,inactive: 0,inactive: 0,inactive: 0,inactive: 0,inactive: 0,0,0
